This test relates to P388 leukemia ip, CD2F1 mice, survival T/C. Briefly: NCI In Vivo Anticancer Drug Screen. Data for tumor model P388 Leukemia (intraperitoneal) in CD2F1 (CDF1) mice. Particulars: T/C endpoint: median survival time, higher T/C = longer survival.
The mark [1] stands for this setting: dose: 3.0 mg/kg/injection, schedule: Q01DX009 (ip), vehicle: saline with Tween-80.

Here are results for seven molecules from PubChem BioAssay AID330 (DTP/NCI, 2004).

The list is a part of this screen's results and no random one: it covers a few groups of compounds. Other doses and runs of a compound may be missing. T/C gives the treated animals as a percentage of the vehicle group. Some entries give survivors of the animals treated and no T/C: the source files T/C as zero there, which appears to mark a toxic dose or a test without result, not a measured value. Survivors were counted at the toxicity check, usually on the fifth day, unless a day is given; later deaths do not show. Schedules are NCI's codes, taken here to give the interval after Q, in days (D) or hours (H), and the number of doses after X. For survival time, the PubChem record calls one and a half times the control and up active, and a quarter to a half above the control has no call in these data; cut-offs in other NCI protocols can differ. Some molecules as drawn cover several salts, stereoisomers or complexes of the source; a dose is that of the sample tested. Some entries hold several experiments; the results are listed from low to high. Some T/C values are marked as having no survivor count here; that says nothing about deaths at the dose. Brackets with × stand for listed records that agree.

As to `O=C(O)CCCCc1ccc(N(CCCl)CCCl)cc1`, the T/C under setting [1] was 109 % of control [survivor count not shown]; the T/C (dose: 6.0 mg/kg/injection, schedule: Q01DX009 (ip), vehicle: saline with Tween-80) is 122 % of control [survivor count not shown]; the T/C (dose: 12.0 mg/kg/injection, schedule: Q01DX009 (ip), vehicle: saline with Tween-80) was 145 % of control [survivor count not shown]; the T/C (dose: 12.5 mg/kg/injection, schedule: Q01DX009 (ip), vehicle: saline with Tween-80) is 150 % of control [survivor count not shown]; the T/C (dose: 16.5 mg/kg/injection, schedule: Q04DX003 (ip), vehicle: saline with Tween-80) is 127 % of control [survivor count not shown]; the T/C (dose: 25.0 mg/kg/injection, schedule: Q01DX009 (ip), vehicle: saline with Tween-80) was 195 % of control [survivor count not shown]. In addition, the T/C (dose: 25.0 mg/kg/injection, schedule: Q04DX003 (ip), vehicle: saline with Tween-80) was 136 % of control [survivor count not shown] and the T/C (dose: 37.5 mg/kg/injection, schedule: Q04DX003 (ip), vehicle: saline with Tween-80) is 159 % of control [survivor count not shown].

Consider `ClCCN(CCCl)Cc1ccc(Cl)cc1`, for which the T/C reads like this: (dose: 25.0 mg/kg/injection, schedule: Q04DX003 (ip), vehicle: alcohol) 165 % of control [survivor count not shown]; (dose: 50.0 mg/kg/injection, schedule: Q04DX003 (ip), vehicle: alcohol) 95 % of control [survivor count not shown].

For `COc1cc(CN(CCCl)CCBr)cc(OC)c1`, the T/C (dose: 0.09 mg/kg/injection, schedule: Q01DX009 (ip), vehicle: saline with Tween-80) was 115 % of control [survivor count not shown]; the T/C (dose: 0.18 mg/kg/injection, schedule: Q01DX009 (ip), vehicle: saline with Tween-80) was 119 % of control [survivor count not shown]; the T/C (dose: 0.37 mg/kg/injection, schedule: Q01DX009 (ip), vehicle: saline with Tween-80) is 129 [survivor count not shown] and 134 % of control [survivor count not shown]; the T/C (dose: 0.75 mg/kg/injection, schedule: Q01DX009 (ip), vehicle: saline with Tween-80) is 138 % of control [survivor count not shown]; the T/C (dose: 1.5 mg/kg/injection, schedule: Q01DX009 (ip), vehicle: saline with Tween-80) was 152 % of control [survivor count not shown]; the T/C under setting [1] was 93 % of control [survivor count not shown].

Turning to `Nc1cc(N)cc(N(CCCl)CCCl)c1`, the T/C runs as follows: (dose: 4.4 mg/kg/injection, schedule: Q04DX003 (ip), vehicle: water) 185 % of control [survivor count not shown]; (dose: 5.0 mg/kg/injection, schedule: Q04DX003 (ip), vehicle: water) 116 [survivor count not shown] and 166 % of control [survivor count not shown]; (dose: 6.6 mg/kg/injection, schedule: Q04DX003 (ip), vehicle: water) 208 % of control [survivor count not shown]; (dose: 10.0 mg/kg/injection, schedule: Q04DX003 (ip), vehicle: water) 98 [survivor count not shown], 172 [survivor count not shown], 215 % of control [survivor count not shown]; (dose: 20.0 mg/kg/injection, schedule: Q04DX003 (ip), vehicle: water) 116 [survivor count not shown] and 127 % of control [survivor count not shown]; (dose: 40.0 mg/kg/injection, schedule: Q04DX003 (ip), vehicle: water) 91 % of control [survivor count not shown].

For the molecule `ClCCN1CCN(CCCl)CC1`, the T/C by setting is: (dose: 0.03 mg/kg/injection, schedule: Q01DX005 (ip), vehicle: saline) 130 % of control; (dose: 0.06 mg/kg/injection, schedule: Q01DX005 (ip), vehicle: saline) 166 % of control; (dose: 0.12 mg/kg/injection, schedule: Q01DX009 (ip), vehicle: saline) 110 % of control [survivor count not shown]; (dose: 0.25 mg/kg/injection, schedule: Q01DX005 (ip), vehicle: saline, evaluated on day 30) 223 % of control; (dose: 0.25 mg/kg/injection, schedule: Q01DX005 (ip), vehicle: saline, evaluated on day 45) 124 % of control; (dose: 0.25 mg/kg/injection, schedule: Q01DX009 (ip), vehicle: saline) 120 % of control [survivor count not shown]. For the same molecule, the T/C is 118 and 138 % of control (dose: 0.5 mg/kg/injection, schedule: Q01DX005 (ip), vehicle: saline); 145 % of control [survivor count not shown] (dose: 0.5 mg/kg/injection, schedule: Q01DX009 (ip), vehicle: saline); 133 and 163 % of control (dose: 1.0 mg/kg/injection, schedule: Q01DX005 (ip), vehicle: saline); 167 % of control [survivor count not shown] (dose: 1.0 mg/kg/injection, schedule: Q01DX009 (ip), vehicle: saline); 163 and 209 % of control (dose: 2.0 mg/kg/injection, schedule: Q01DX005 (ip), vehicle: saline); 114 % of control [survivor count not shown] (dose: 2.0 mg/kg/injection, schedule: Q01DX009 (ip), vehicle: saline). The T/C by setting is: (dose: 4.0 mg/kg/injection, schedule: Q01DX005 (ip), vehicle: saline) 209 % of control; (dose: 6.0 micrograms/kg/injection, schedule: Q01DX009 (ip), vehicle: saline) 99 [survivor count not shown] and 104 % of control [survivor count not shown]; (dose: 12.0 micrograms/kg/injection, schedule: Q01DX009 (ip), vehicle: saline) 102 % of control [survivor count not shown]; (dose: 12.5 micrograms/kg/injection, schedule: Q01DX009 (ip), vehicle: saline) 100 % of control [survivor count not shown]; (dose: 25.0 micrograms/kg/injection, schedule: Q01DX009 (ip), vehicle: saline) 100 % of control [survivor count not shown] (2×); (dose: 50.0 micrograms/kg/injection, schedule: Q01DX009 (ip), vehicle: saline) 102 [survivor count not shown] and 106 % of control [survivor count not shown]. Also, the T/C was 107 [survivor count not shown] and 116 % of control [survivor count not shown] (dose: 100.0 micrograms/kg/injection, schedule: Q01DX009 (ip), vehicle: saline); 127 % of control [survivor count not shown] (dose: 125.0 micrograms/kg/injection, schedule: Q01DX009 (ip), vehicle: saline); 107 [survivor count not shown] and 111 % of control [survivor count not shown] (dose: 200.0 micrograms/kg/injection, schedule: Q01DX009 (ip), vehicle: saline); 148 % of control [survivor count not shown] (dose: 250.0 micrograms/kg/injection, schedule: Q01DX009 (ip), vehicle: saline); 180 % of control [survivor count not shown] (dose: 500.0 micrograms/kg/injection, schedule: Q01DX009 (ip), vehicle: saline); 216 % of control [survivor count not shown] (dose: 1000.0 micrograms/kg/injection, schedule: Q01DX009 (ip), vehicle: saline). Moreover, for the setting “dose: 2000.0 micrograms/kg/injection, schedule: Q01DX009 (ip), vehicle: saline”, the T/C was 100 % of control [survivor count not shown].

Regarding `Cc1ccc2c(N(CCCl)CCCl)cc(C)nc2n1`, the T/C (dose: 50.0 mg/kg/injection, schedule: Q04DX003 (ip), vehicle: saline with Tween-80) is 103 % of control and the T/C (dose: 100.0 mg/kg/injection, schedule: Q04DX003 (ip), vehicle: saline with Tween-80) was 95 % of control. For the same molecule, where the note is “dose: 200.0 mg/kg/injection, schedule: Q04DX003 (ip), vehicle: saline with Tween-80”, the survivor count is 2 of 6.

As for `ClCCN(CCCl)CCSc1nc2ccccc2[nH]1`, the T/C by setting is: (dose: 25.0 mg/kg/injection, schedule: Q01DX001 (ip), vehicle: saline with Tween-80) 118 % of control [survivor count not shown]; (dose: 50.0 mg/kg/injection, schedule: Q01DX001 (ip), vehicle: saline with Tween-80) 106 % of control [survivor count not shown]; (dose: 100.0 mg/kg/injection, schedule: Q01DX001 (ip), vehicle: saline with Tween-80) 102 % of control [survivor count not shown].
